# According to patent publication US8815499B2, “In situ detoxification of fermentation inhibitors with reducing agents” (priority 2009, dated 2014):
# Like-named read-outs stand apart in the source and are kept apart here.
# Assays:
# [1] = acid spruce hydrolysate
# [2] = test system: yeast Saccharomyces cerevisiae; assay: Simultaneous saccharification and fermentation (SSF) of sugarcane bagass slurry; format: cell-based; details: 7.5 and 10 mM
# [3] = NH4OH detoxification pH 9, 55° C., 3 h
structure (smiles),measurement,setting,value
"N [NH4OH, ammonium hydroxide, reference compound]",Glucose concentration,[1]; [3],17.7 g/L
same,Mannose concentration,[1]; [3],14.2 g/L
same,Phenolic compounds concentration,[1]; [3],2.5 g/L
same,Xylose concentration,[1]; [3],6.8 g/L
"O=S([O-])S(=O)[O-].[Na+].[Na+] [Dithionite, Sodium dithionite]",Glucose concentration,[1]; 2.5 mM,18.3 g/L
same,Mannose concentration,[1]; 2.5 mM,14.9 g/L
same,Phenolic compounds concentration,[1]; 2.5 mM,2.9 g/L
same,Xylose concentration,[1]; 2.5 mM,6.6 g/L
same,Glucose concentration,[1]; 5.0 mM,18.7 g/L
same,Mannose concentration,[1]; 5.0 mM,14.7 g/L
same,Phenolic compounds concentration,[1]; 5.0 mM,2.9 g/L
same,Xylose concentration,[1]; 5.0 mM,6.6 g/L
same,Glucose concentration,[1]; 7.5 mM,18.8 g/L
same,Mannose concentration,[1]; 7.5 mM,14.8 g/L
same,Phenolic compounds concentration,[1]; 7.5 mM,2.9 g/L
same,Xylose concentration,[1]; 7.5 mM,6.7 g/L
same,Glucose concentration,[1]; 10.0 mM,18.1 g/L
same,Mannose concentration,[1]; 10.0 mM,14.9 g/L
same,Phenolic compounds concentration,[1]; 10.0 mM,2.8 g/L
same,Xylose concentration,[1]; 10.0 mM,6.5 g/L
same,Glucose concentration,[1]; 12.5 mM,18.1 g/L
same,Mannose concentration,[1]; 12.5 mM,14.7 g/L
same,Phenolic compounds concentration,[1]; 12.5 mM,2.9 g/L
same,Xylose concentration,[1]; 12.5 mM,6.4 g/L
same,Glucose concentration,[1]; 15.0 mM,18.3 g/L
same,Mannose concentration,[1]; 15.0 mM,14.7 g/L
same,Phenolic compounds concentration,[1]; 15.0 mM,2.8 g/L
same,Xylose concentration,[1]; 15.0 mM,6.4 g/L
same,Formation of precipitates,[2],did not lead to any formation of precipitates
"O=S([O-])[O-].[Na+].[Na+] [Sulphite, sodium sulphite]",Formation of precipitates,[2],did not lead to any formation of precipitates
